Article PMC7017148
No constants are given. Whether binding was seen depends on the method and setting. In cells and extracts the contact can be indirect. Some binding calls cover weakened binding; strength is not graded here. Blank lines part the entries; values can stand above or below the molecule they belong to.

Sequences of proteins named here, by UniProt entry; tags and fusion partners are left off.
UniProt P07355: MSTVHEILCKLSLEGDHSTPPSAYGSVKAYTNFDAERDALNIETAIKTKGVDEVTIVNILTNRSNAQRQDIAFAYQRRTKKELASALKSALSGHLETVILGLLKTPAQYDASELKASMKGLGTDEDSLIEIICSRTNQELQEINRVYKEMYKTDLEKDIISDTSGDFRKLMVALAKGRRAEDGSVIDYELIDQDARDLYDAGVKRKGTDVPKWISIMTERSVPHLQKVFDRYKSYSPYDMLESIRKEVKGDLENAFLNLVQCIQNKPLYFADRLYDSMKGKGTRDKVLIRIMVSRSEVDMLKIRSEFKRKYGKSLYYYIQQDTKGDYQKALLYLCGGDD

Key:
[1] = molecular target: T1, E3 ubiquitin-ligase Hakai (human (endogenous in HEK293T, ACHN, HT29, HCT116)) (UniProt Q75N03); assay: condition: only cells treated with 10 µM geldanamycin for 24 h; co-IP; HCT116 cells treated with 10 µM geldanamycin for 24 h before lysis; immunoprecipitation with Hakai or Annexin A2 antibody; western blot
T1 sequence: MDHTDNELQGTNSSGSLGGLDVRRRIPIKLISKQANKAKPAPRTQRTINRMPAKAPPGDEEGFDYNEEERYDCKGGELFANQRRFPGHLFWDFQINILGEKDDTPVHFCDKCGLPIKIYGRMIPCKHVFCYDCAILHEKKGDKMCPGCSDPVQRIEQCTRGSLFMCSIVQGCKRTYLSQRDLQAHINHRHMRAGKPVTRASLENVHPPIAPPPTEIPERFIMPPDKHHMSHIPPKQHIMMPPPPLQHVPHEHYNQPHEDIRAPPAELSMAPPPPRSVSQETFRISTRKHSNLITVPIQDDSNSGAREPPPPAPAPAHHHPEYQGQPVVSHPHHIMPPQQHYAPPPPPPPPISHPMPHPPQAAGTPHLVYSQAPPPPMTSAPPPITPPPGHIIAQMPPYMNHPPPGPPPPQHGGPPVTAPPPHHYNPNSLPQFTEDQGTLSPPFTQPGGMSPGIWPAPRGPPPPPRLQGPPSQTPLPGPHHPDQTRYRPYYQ

[2] = molecular target: T1, E3 ubiquitin-ligase Hakai (human (endogenous in HEK293T, ACHN, HT29, HCT116)); assay: co-IP; endogenous proteins; whole cell extracts (HEK293T, ACHN, HT29, HCT116) in 1% Triton X-100 buffer (20 mM Tris-HCl pH 7.5, 150 mM NaCl); antibody (Hakai, Hsp90 or Annexin A2) or control IgG on Protein A or Protein G PLUS agarose, 2 h at 4 °C; western blot
[3] = molecular target: Annexin A2 (human (endogenous in HCT116)) (UniProt P07355); assay: condition: only cells treated with 10 µM geldanamycin for 24 h; co-IP; HCT116 cells treated with 10 µM geldanamycin for 24 h before lysis; immunoprecipitation with Hakai or Annexin A2 antibody; western blot

binding [1]: no binding
binding [2]: binds
Molecule: Annexin A2 (from UniProt P07355 1-339)

binding [3]: no binding
B1: E3 ubiquitin-ligase Hakai (protein, UniProt Q75N03 1-491)
chain: T1 sequence
